# The other results are listed elsewhere or left out. Small differences around the control level are noise.
# Sequences of proteins named here, by UniProt entry; tags and fusion partners are left off. A change or cut given only in a name is not applied to a line headed by its entry.
# UniProt P40711: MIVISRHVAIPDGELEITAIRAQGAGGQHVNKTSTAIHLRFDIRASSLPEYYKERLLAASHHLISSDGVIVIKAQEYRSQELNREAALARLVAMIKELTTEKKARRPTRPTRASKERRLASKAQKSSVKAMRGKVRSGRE
# UniProt P37691: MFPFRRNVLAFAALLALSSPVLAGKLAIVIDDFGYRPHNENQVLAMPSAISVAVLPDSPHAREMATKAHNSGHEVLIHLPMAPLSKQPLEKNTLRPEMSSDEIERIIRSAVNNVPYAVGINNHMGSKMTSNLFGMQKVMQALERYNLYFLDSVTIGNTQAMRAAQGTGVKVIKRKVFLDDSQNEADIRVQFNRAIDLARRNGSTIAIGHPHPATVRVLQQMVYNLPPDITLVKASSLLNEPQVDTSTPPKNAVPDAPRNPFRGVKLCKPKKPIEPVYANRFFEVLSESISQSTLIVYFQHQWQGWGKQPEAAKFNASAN
# UniProt P37636: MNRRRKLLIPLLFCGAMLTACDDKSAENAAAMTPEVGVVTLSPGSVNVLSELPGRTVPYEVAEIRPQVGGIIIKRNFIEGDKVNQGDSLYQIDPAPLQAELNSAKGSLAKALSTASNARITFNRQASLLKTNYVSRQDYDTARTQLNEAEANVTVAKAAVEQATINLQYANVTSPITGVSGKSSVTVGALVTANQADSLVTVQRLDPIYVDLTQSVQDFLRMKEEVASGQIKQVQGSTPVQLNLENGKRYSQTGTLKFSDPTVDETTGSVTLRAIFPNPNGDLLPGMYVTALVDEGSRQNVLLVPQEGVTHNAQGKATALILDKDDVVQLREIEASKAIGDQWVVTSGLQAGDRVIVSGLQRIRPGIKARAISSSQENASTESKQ
# UniProt P39334: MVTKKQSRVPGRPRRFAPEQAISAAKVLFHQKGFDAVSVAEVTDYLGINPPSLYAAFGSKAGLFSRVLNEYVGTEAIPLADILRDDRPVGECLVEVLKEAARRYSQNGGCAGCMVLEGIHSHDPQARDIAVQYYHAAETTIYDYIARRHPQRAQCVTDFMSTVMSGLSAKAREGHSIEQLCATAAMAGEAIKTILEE
# UniProt P45423: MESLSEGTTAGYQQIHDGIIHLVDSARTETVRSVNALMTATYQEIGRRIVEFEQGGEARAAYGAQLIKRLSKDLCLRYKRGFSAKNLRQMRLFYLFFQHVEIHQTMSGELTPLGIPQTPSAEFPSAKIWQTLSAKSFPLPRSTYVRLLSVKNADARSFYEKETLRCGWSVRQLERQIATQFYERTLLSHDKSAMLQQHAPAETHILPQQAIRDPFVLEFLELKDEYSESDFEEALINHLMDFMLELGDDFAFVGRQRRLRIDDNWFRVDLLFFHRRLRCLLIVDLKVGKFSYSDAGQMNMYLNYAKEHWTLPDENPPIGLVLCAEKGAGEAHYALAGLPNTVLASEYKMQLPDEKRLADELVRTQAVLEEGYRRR
# UniProt P40710: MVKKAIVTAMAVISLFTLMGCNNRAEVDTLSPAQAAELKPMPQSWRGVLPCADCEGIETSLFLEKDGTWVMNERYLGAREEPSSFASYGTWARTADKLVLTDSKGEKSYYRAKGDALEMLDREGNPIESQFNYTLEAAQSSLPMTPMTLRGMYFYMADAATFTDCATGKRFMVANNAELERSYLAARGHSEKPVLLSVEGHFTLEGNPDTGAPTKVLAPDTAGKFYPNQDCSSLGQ
# UniProt P37760: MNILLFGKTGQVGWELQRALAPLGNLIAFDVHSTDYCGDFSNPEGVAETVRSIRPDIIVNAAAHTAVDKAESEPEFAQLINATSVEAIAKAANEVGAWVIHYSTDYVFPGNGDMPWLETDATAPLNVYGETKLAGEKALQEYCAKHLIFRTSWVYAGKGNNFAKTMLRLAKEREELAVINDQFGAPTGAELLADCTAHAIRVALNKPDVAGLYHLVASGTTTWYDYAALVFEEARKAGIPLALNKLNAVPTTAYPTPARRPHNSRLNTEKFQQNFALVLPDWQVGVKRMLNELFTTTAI
# UniProt P45579: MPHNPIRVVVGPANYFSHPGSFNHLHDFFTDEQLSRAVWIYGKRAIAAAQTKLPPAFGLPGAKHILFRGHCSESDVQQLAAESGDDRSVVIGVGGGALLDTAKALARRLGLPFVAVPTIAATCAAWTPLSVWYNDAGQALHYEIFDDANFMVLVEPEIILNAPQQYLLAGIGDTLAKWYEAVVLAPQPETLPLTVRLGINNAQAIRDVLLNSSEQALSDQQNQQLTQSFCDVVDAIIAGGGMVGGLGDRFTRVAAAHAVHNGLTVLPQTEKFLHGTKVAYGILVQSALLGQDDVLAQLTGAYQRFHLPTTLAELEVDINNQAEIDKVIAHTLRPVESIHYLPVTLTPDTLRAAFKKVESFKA
# UniProt P36771: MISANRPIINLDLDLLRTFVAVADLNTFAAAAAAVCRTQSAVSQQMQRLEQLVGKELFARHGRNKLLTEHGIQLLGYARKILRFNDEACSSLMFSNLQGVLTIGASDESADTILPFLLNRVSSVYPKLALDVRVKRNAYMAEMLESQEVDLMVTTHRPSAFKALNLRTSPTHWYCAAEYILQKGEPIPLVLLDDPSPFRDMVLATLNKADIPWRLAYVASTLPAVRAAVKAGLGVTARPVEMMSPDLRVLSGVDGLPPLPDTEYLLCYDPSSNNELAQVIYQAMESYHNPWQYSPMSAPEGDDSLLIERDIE
# UniProt P37639: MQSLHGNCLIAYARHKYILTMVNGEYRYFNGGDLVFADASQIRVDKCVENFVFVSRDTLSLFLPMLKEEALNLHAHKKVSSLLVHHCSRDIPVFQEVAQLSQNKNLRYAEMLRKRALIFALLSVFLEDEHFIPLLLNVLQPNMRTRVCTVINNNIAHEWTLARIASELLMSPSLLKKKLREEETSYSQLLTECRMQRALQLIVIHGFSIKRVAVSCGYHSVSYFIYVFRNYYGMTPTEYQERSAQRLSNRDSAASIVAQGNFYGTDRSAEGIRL
# UniProt P37749: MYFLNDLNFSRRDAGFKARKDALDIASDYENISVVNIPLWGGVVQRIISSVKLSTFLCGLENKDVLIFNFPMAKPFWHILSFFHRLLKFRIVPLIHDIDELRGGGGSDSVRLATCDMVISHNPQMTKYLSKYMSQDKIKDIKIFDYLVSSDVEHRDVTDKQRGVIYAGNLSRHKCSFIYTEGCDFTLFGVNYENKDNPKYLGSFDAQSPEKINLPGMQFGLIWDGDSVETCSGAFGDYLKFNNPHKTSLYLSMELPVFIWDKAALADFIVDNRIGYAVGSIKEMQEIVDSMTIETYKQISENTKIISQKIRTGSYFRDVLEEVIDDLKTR
# Compound: CC1(C)S[C@@H]2[C@H](NC(=O)[C@H](N)c3ccccc3)C(=O)N2[C@H]1C(=O)O [ampicillin]
# Assay: log2 fold change of tryptic peptide abundance, ligand vs vehicle (limited proteolysis) (log2 ratio); higher = more trypsin-susceptible (destabilized)
# Details: ligand concentration: 10 uM; sample: E. coli crude lysate
row,Target,log2 fold change
1,"UniProt P40711 (peptide sequence: ASSLPEYYKER, peptide start residue: 45)",0.24
2,"UniProt P37691 (peptide sequence: AHNSGHEVLIHLPMAPLSK, peptide start residue: 68)",0.0735
3,"UniProt P37636 (peptide sequence: QNVLLVPQEGVTHNAQGK, peptide start residue: 299)",0.195
4,"UniProt P39334 (peptide sequence: DDRPVGECLVEVLK, peptide start residue: 85)",0.469
5,"UniProt P45423 (peptide sequence: DLCLRYKR, peptide start residue: 73)",-0.02
6,"UniProt P40710 (peptide sequence: FMVANNAELER, peptide start residue: 171)",0.0687
7,"UniProt P37760 (peptide sequence: AGIPLALNK, peptide start residue: 237)",0.21
8,"UniProt P45579 (peptide sequence: LGINNAQAIR, peptide start residue: 197)",-0.0988
9,"UniProt P36771 (peptide sequence: LEQLVGKELFAR, peptide start residue: 49)",-0.26
10,"UniProt P37639 (peptide sequence: IASELLMSPSLLKK, peptide start residue: 164)",-0.466
11,"UniProt P37749 (peptide sequence: GVIYAGNLSR, peptide start residue: 163)",-0.152

# Some of the entries so far, with tabs.
row	Target	log2 fold change
1	UniProt P40711 (peptide sequence: ASSLPEYYKER, peptide start residue: 45)	0.24
11	UniProt P37749 (peptide sequence: GVIYAGNLSR, peptide start residue: 163)	-0.152

# Reference: the supplement of paper PMC12819154, “High-throughput peptide-centric local stability assay extends protein–ligand identification to membrane proteins, tissues and bacteria” (Nature Structural & Molecular Biology, 2025)
